Data as given in PMC7135998.

Tests used:
GST-LSF, full length = target: T1, GST-LSF, full length (UniProt Q12800); assay: pull-down; GST pull-down: about 10 μg GST fusion protein on GSH-Sepharose beads, incubated 2 h at 4 °C with purified tubulin or purified His-LSF; immunoblot; both purified
T1 sequence: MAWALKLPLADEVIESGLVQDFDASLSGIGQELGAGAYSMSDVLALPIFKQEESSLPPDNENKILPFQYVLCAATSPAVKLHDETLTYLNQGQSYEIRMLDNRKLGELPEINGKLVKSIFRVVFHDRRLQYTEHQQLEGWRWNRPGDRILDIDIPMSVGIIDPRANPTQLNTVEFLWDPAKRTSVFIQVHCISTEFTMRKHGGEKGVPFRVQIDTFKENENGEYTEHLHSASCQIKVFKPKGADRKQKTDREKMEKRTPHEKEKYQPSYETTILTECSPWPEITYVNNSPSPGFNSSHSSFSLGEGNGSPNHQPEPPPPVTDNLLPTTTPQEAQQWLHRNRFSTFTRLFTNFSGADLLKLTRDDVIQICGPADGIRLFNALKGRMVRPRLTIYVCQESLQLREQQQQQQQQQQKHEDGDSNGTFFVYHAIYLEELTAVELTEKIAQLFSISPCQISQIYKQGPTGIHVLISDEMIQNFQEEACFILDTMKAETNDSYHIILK

[1] = target: T2, endogenous LSF (human (endogenous in HEK293T)) (UniProt Q12800); assay: co-IP; HEK293T cell lysates with anti-LSF antibody (Millipore 17-10252) against control IgG, immunoblot; endogenous proteins; also from cells treated with vehicle or 2.5 μM FQI1 for 24 h (α-tubulin co-precipitate reduced)
T2 sequence: T1 sequence

[2] = target: T3, endogenous SET8 (N-lysine methyltransferase 5A) (human (endogenous in HEK293T)) (UniProt Q9NQR1); assay: co-IP; 1 mg total HEK293T cellular extract with 5 μg anti-SET8 antibody (Active Motif or Millipore), normal IgG as control, immunoblot; endogenous proteins; also from cells treated with FQI1 (less tubulin co-precipitated, Fig. S4C)
T3 sequence: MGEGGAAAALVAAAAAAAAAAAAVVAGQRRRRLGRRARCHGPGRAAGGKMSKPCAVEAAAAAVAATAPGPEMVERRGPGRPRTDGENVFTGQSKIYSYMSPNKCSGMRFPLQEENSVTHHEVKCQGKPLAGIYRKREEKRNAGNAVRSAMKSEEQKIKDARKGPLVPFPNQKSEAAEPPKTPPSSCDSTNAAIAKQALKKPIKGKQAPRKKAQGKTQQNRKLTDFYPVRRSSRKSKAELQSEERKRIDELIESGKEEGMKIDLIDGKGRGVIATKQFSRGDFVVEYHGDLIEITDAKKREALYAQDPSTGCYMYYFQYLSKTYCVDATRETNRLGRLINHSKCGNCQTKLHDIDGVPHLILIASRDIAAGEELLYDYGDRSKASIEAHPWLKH

[3] = target: GST fused to the N-terminal portion of SET8 (human); assay: pull-down; GST pull-down: about 10 μg GST fusion protein on GSH-Sepharose beads, incubated 2 h at 4 °C with purified tubulin or purified His-LSF; immunoblot; both purified

How did the binding (GST-LSF, full length) turn out when “β-tubulin of purified porcine brain tubulin” was run?
The binding was “binds weakly”.

Which binding [1] does the source give for “endogenous α-tubulin (human (endogenous in HEK293T))” here?
The binding was “binds”.

And the binding [2]?
Its binding is “binds”.

B1: His-tagged LSF (protein, UniProt Q12800 1-502)
chain: T1 sequence
B1 was tested. Which binding [3] did it give?
Its binding is “binds”.

Results are given in words; binding and its absence hold for the method and conditions named. Binding can be weak; no strength is given. For some of these results: Where a sequence is shown, tags or fusion partners need not be part of it. For some of these results: Binding seen in cells or lysates may run through a third protein.
